This passage reports cell number change and AC50 results from PubChem BioAssay AID2685 (National Center for Advancing Translational Sciences (NCATS), 2010).

A short description of the assay: qHTS Assay for Lipid Storage Modulators in Drosophila S3 Cells.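 As to cell number change: cells counted by Cell Tracker Red CMTPX staining in the red channel.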 Particulars: BODIPY lipid droplet fluorescence, 18-24 h; for cell number change: measured here: cell count max response, cells fed with added oleic acid. In a few lines: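 Drosophila S3 cells loaded with oleic acid (400 uM, as added) and compounds at several concentrations; lipid droplets imaged by 488-nm laser-scanning cytometry, 500–530 nm intensity and object ratio to cell channel. Percent activity normalized to 20 uM Triacsin C.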
(In general: Quantitative high-throughput screening tests each substance at several concentrations.)

Setting [1] is: measured here: lipid fluorescence (Fed channel) AC50, cells fed with added oleic acid.
[2] abbreviates: measured here: cell number channel AC50, cells fed with added oleic acid.

As a reminder, the AC50 is the midpoint of the concentration-response curve, whichever way the signal moves.

SMILES strings stand for the structures. The list shows a part of the results. Further columns of the screen follow, without active or inactive calls. Compounds called inactive in the main read-out are mostly missing here. Words in brackets tell the shape of the fitted curve; partial curves, single points and poor fits give uncertain potencies.

For `CCN(CC)S(=O)(=O)c1ccc(/C=C/C(=O)NC2CCCCC2)cc1`, the cell number change is 12.6%.
For the molecule `CC1CN(C(=O)CCNS(=O)(=O)c2ccc(Br)cc2)CC(C)O1` (configuration not stated), the cell number change was -3.95%. Under setting [1], the AC50 was 29.1 µM [rising, partial curve].
As to `O=C(O)CSc1ccc(S(=O)(=O)N2CCCC2)cn1`, the cell number change is -38.7%. Besides, the AC50 under setting [1] is 0.13 µM [falling, full curve, poor fit].
For the molecule `COc1cc(C(=O)N/C(=C\c2cn(C)c3ccccc23)C(=O)N2CCN(C)CC2)cc(OC)c1OC`, the cell number change came to 15.6%.
In the case of `O=C(O)CNC(=O)c1ccc(S(=O)(=O)N2CCOCC2)cc1`, the cell number change was 4.21%. For the same molecule, under setting [1], the AC50 was 1.46 µM [rising, full curve, poor fit].
Take `CC(C)n1c(O)c(N=Nc2ccc(Cl)c(C(=O)O)c2)c2ccccc21`: the cell number change was 18.7%. The AC50 under setting [1] is 18.4 µM [rising, partial curve, poor fit].
With `O=C(Nc1cccc(S(=O)(=O)N2CCOCC2)c1)c1cccc(S(=O)(=O)N2CCCCC2)c1`, the cell number change was 17.3%.
For `O=C(CN1C(=O)c2cccc3cccc(c23)C1=O)N1CCN(c2ccccn2)CC1`, the cell number change was -7.33%. Moreover, the half-maximal activity concentration (AC50) under setting [1] was 0.731 µM [rising, single point].
As to `Cc1cccc(OCC(=O)Nc2ccccc2N2CCN(C(=O)C(C)C)CC2)c1C`, the half-maximal activity concentration (AC50) under setting [2] is 6.51 µM [rising, single point].
Take `C=CCNC(=S)NNC(=O)c1cc(C)nc2ccccc12`: the cell number change is 20.9%. In addition, the AC50 under setting [1] is 6.51 µM [rising, partial curve].
As to `COc1ccc(N2CCN(C(=O)Nc3cccc(C(F)(F)F)c3)CC2)cc1`, the cell number change is -12.8%. Further, the half-maximal activity concentration (AC50) under setting [1] was 2.59 µM [rising, partial curve].
For the molecule `Cc1ccc(N=N/C(=C\O)C(=O)c2ccc(Cl)cc2)cc1`, the cell number change was -64.8%.
With `O=C(Nc1nc(-c2ccc(F)cc2)cs1)C1CCN(C(=O)c2ccc(F)cc2)CC1`, the half-maximal activity concentration (AC50) under setting [2] was 6.51 µM [rising, single point].
As for `CC(Sc1nnnn1C)C(=O)Nc1ccccc1` (configuration not stated), the cell number change was -22.9%.
On to `COC(=O)[C@]1(Cc2ccccc2)N[C@H](c2ccc(-c3ccc(Cl)c(Cl)c3)cc2)[C@@H]2C(=O)N(C)C(=O)[C@@H]21`, for which the cell number change was -42.4%. In addition, under setting [2], the concentration at half-maximal activity (AC50) was 16.4 µM [falling, partial curve, poor fit]. Besides, under setting [1], the half-maximal activity concentration (AC50) was 6.51 µM [falling, single point].
Regarding `Cc1cc(NC(=O)c2sc(Nc3cccc(C(F)(F)F)c3)nc2N)no1`, the cell number change is -9.47%. Under setting [1], the AC50 was 0.092 µM [rising, full curve, poor fit].
As to `O=C(COC(=O)c1ccc(F)c(S(=O)(=O)N2CCOCC2)c1)NCCc1ccccc1`, the AC50 under setting [1] is 0.731 µM [rising, partial curve, poor fit].
In the case of `CCOC(=O)CNC(=O)c1ccc(Cl)s1`, the cell number change was -24.1%. The half-maximal activity concentration (AC50) under setting [1] is 6.51 µM [falling, single point].
Regarding `Cc1cc(C)c2c(n1)SCC(=O)N2CC(=O)Nc1ccc(Br)c(C)c1`, the cell number change is -25.6%. Moreover, under setting [1], the AC50 is 29.1 µM [rising, single point].
As for `C/C(=N/O)c1ccccn1`, the cell number change was 7.36%. Also, the AC50 under setting [1] was 18.4 µM [falling, partial curve].
Take `COc1ccc(C)cc1NS(=O)(=O)c1cccc2nonc12`: the cell number change was determined as 1.69%. Also, the half-maximal activity concentration (AC50) under setting [1] is 29.1 µM [rising, single point].
With `CCc1cccc(N=c2c([N+](=O)[O-])nn(-c3ccc(Cl)cc3)n2O)c1`, the cell number change is -53.4%. Further, the AC50 under setting [2] is 29.1 µM [falling, single point].
Consider `Cc1ccc(C(=O)NNC(=O)C2CC2)cc1Br`, for which the cell number change was found to be 18.5%. In addition, the AC50 under setting [1] was 0.259 µM [rising, single point].
For the molecule `Cc1cccc(NC(=O)CSc2nc(=O)n3ccccc3n2)c1C`, the cell number change was 5.68%. Further, under setting [1], the AC50 was 0.13 µM [rising, full curve, poor fit].
As to `Cc1ccc2oc(-c3cccc(NC(=O)Cn4cnc5c(=O)n(C)c(=O)n(C)c54)c3)nc2c1`, the concentration at half-maximal activity (AC50) under setting [1] is 0.461 µM [rising, single point].
Consider `Cc1ccccc1C(=O)NCCOc1ccccc1Cl`, for which the cell number change is -7.3%.
With `COc1cc(-c2c(NC(=O)c3ccco3)oc3c(C)cccc3c2=O)cc(OC)c1OC`, the cell number change turned out to be 1.18%. Further, under setting [1], the AC50 is 0.0164 µM [rising, full curve, poor fit].
Turning to `COc1ccccc1C(CNC(=O)c1oc2ccccc2c1C)N1CCCC1` (configuration not stated), the cell number change is -19.1%. In addition, the concentration at half-maximal activity (AC50) under setting [1] is 16.4 µM [rising, partial curve].
As to `Cc1sc2ncnc(N3CCC(C(=O)N(CC(C)C)c4nc5ccccc5s4)CC3)c2c1C`, the cell number change was 31.5%. Also, under setting [2], the AC50 was 1.84 µM [rising, partial curve].
As for `O=C(COc1ccc(-c2ccccc2)cc1)NN=C1CCCC1`, the cell number change is -58.2%.
Turning to `COc1ccc(-c2cc3ccccc3n2CC(O)CN2CCC(C)CC2)cc1` (configuration not stated), the cell number change came out at 35.1%. Under setting [2], the half-maximal activity concentration (AC50) is 29.1 µM [rising, single point].
With `Cc1cc(C(F)F)n2nc(C(=O)Nc3ccccc3Br)nc2n1`, under setting [1], the AC50 is 0.58 µM [rising, single point].
As for `COCCCn1c(SCC(=O)NC2CCCC2)nnc1-c1ccncc1`, the cell number change was determined as 22.3%. Moreover, the AC50 under setting [1] is 6.51 µM [rising, single point].
Turning to `COc1ccc(C)cc1-n1nnnc1SCc1csc(C)n1`, the cell number change is -6.12%. Further, the half-maximal activity concentration (AC50) under setting [1] was 0.116 µM [rising, full curve, poor fit].
With `O=C1c2oc3ccccc3c(=O)c2C(c2cccc(O)c2)N1c1ccccn1` (configuration not stated), the cell number change is 40.2%. In addition, the AC50 under setting [2] was 29.1 µM [rising, single point]. Also, the half-maximal activity concentration (AC50) under setting [1] is 3.26 µM [rising, single point].
Turning to `CCC1CCCCN1CCCNS(=O)(=O)c1ccc2c(c1)oc(=O)n2C` (configuration not stated), the cell number change worked out at 16.2%. Besides, the half-maximal activity concentration (AC50) under setting [2] was 0.651 µM [rising, full curve].
`Cc1cc(C)c(NC(=O)C2CC(=O)N(Cc3ccccc3)C2)c(C)c1` (configuration not stated): the cell number change was determined as 10.6%. Further, the half-maximal activity concentration (AC50) under setting [1] was 29.1 µM [falling, single point].
As for `CCN(CC(=O)Nc1c(F)cccc1F)C(=O)CSc1ccc(F)cc1`, the cell number change turned out to be 19%.
Turning to `CCOc1ccc2nc(SCC(=O)N3CCCc4ccccc43)sc2c1`, the cell number change is -9.9%. For the same molecule, the half-maximal activity concentration (AC50) under setting [1] is 16.4 µM [falling, single point].
For `NNC(=O)CN(CCc1ccccc1)S(=O)(=O)c1ccc(Cl)cc1`, the cell number change came out at 51.7%. The concentration at half-maximal activity (AC50) under setting [2] was 3.26 µM [falling, single point]. Also, the AC50 under setting [1] was 7.31 µM [rising, partial curve].
Consider `CCN(C(=O)CSc1ncn[nH]1)c1c(N)n(Cc2ccccc2)c(=O)[nH]c1=O`, for which the cell number change was -16.5%.
Consider `CC(=O)Nc1ccc(NC(=O)Cc2ccc(S(=O)(=O)N3CCCCC3)cc2)cc1`, for which the concentration at half-maximal activity (AC50) under setting [2] was 6.51 µM [rising, single point].
